The values below come from PubChem BioAssay AID2685 (National Center for Advancing Translational Sciences (NCATS), 2010).

The nature of the experiment: qHTS Assay for Lipid Storage Modulators in Drosophila S3 Cells.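 On cell number change: cells counted by Cell Tracker Red CMTPX staining in the red channel.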 The settings on record: BODIPY lipid droplet fluorescence, 18-24 h; for cell number change: measured here: cell count max response, cells fed with added oleic acid. In outline: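 Drosophila S3 cells loaded with oleic acid (400 uM, as added) and compounds at several concentrations; lipid droplets imaged by 488-nm laser-scanning cytometry, 500–530 nm intensity and object ratio to cell channel. Percent activity normalized to 20 uM Triacsin C.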
On the technique in general: In qHTS, concentration-response curves come from the screen itself.

Setting [1] is: measured here: cell number channel AC50, cells fed with added oleic acid.
The mark [2] stands for this setting: measured here: lipid fluorescence (Fed channel) AC50, cells fed with added oleic acid.

The list shows a part of the results. The main result of the screen is listed elsewhere. These columns were measured beside it and carry no call. The list favours compounds with an active or inconclusive main result. The note in brackets gives the kind of curve behind each potency; many fits are weak.

Regarding `Cc1nnc2n(-c3ccc(Cl)cc3)c(=O)c3c4c(sc3n12)CN(C)CC4`, the cell number change was -9.39%. The AC50 (usually the midpoint of the concentration-response curve, whichever way the signal moves) under setting [1] was 3.66 µM [rising, partial curve]. The concentration at half-maximal activity (AC50) under setting [2] was 0.517 µM [falling, full curve].

For `CCCS(=O)(=O)c1nc(C)cc(C)c1S(C)(=O)=O`, the cell number change was -49.5%. Further, the half-maximal activity concentration (AC50) under setting [1] was 29.1 µM [falling, single point]. For the same molecule, under setting [2], the concentration at half-maximal activity (AC50) is 29.1 µM [falling, single point].

For the molecule `CC(CC(=O)N1CCN(c2ccccc2)CC1)c1ccccc1` (stereo not given), the AC50 under setting [2] is 16.4 µM [falling, single point].

Consider `Cc1cc(C)nc(NC(=NCCc2c[nH]c3ccccc23)NC(=O)Nc2ccccc2)n1`, for which the cell number change is -36.5%. The AC50 under setting [1] is 8.2 µM [falling, partial curve, poor fit]. Moreover, under setting [2], the AC50 was 8.2 µM [falling, partial curve].

As to `O=S(=O)(NCC(c1ccco1)N1CCc2ccccc21)c1ccccc1` (stereo not given), the cell number change is -2.05%. Also, the AC50 under setting [2] is 32.6 µM [falling, single point].

Regarding `COc1ccc(Cl)cc1N(CC(=O)N1CCCC1)S(=O)(=O)c1ccc(C)cc1`, the cell number change was -7.89%.

For the molecule `CC/C(=N\NS(C)(=O)=O)c1ccccc1`, the cell number change stood at 4.68%.

As for `COc1ccc(C(=O)COc2ccccc2C(=O)Nc2ccccc2)cc1`, the cell number change is -44%. Moreover, the half-maximal activity concentration (AC50) under setting [1] is 0.92 µM [falling, full curve].

For the molecule `CC(=O)Nc1ccc(/C=C/C(=O)c2ccc3c(c2)OCCO3)cc1`, the cell number change is -28.6%. Besides, the AC50 under setting [1] was 1.64 µM [falling, full curve, poor fit].

For the molecule `Cc1ccc(C(=O)Nc2cccc(S(=O)(=O)N3CCCC3)c2)o1`, the cell number change is -7.39%.

For `Cc1ccc2nc(NCCCO)nc(-c3ccccc3)c2c1`, the cell number change came to 15.3%. The AC50 under setting [2] was 8.2 µM [rising, partial curve].

As for `O=C1C2C3C=CC(CC3)C2C(=O)N1c1cccc(Br)c1` (stereo not given), the cell number change worked out at 0.263%. Besides, the AC50 under setting [2] is 3.26 µM [falling, single point].

For `CC1c2cc3c(cc2CCN1S(=O)(=O)c1ccccc1)OCCCO3` (stereo not given), the cell number change is -8.66%.

Regarding `CC[n+]1c(/C=C(\C)Nc2ccccc2)sc2ccccc21`, the cell number change amounted to 58.7%. Moreover, the AC50 under setting [1] was 29.1 µM [rising, single point]. Moreover, the concentration at half-maximal activity (AC50) under setting [2] is 2.91 µM [rising, full curve].

As for `CCCn1c(=O)c(C(=O)Nc2cccc(C)n2)c(O)c2ccccc21`, the cell number change is -5.87%.

As to `CCN1CCN(Cc2ccc(NC(=O)c3cc(NC(=O)C(=O)c4c[nH]c5ccccc45)cc(OC)c3)cc2C(F)(F)F)CC1`, the cell number change is -43.2%. The AC50 under setting [1] is 29.1 µM [falling, single point]. Besides, under setting [2], the AC50 is 29.1 µM [falling, single point].

On to `Cc1nc(Nc2ccc(F)cc2)[nH]c(=O)c1CCC(C)C`, for which the cell number change was -33.5%. The AC50 under setting [1] was 3.66 µM [falling, full curve]. Under setting [2], the AC50 is 7.31 µM [falling, partial curve].

As to `COC(=O)C1=C(C(=O)OC)[C@@H]2N(Cc3ccccc3)c3ccccc3[C@@]23C[C@@H](C(=O)OC)N(C(C)=O)C3=N1`, the cell number change was -35.1%. Moreover, the AC50 under setting [1] was 6.51 µM [falling, partial curve, poor fit]. Also, the half-maximal activity concentration (AC50) under setting [2] was 6.51 µM [falling, full curve, poor fit].

Turning to `COc1ccc(C(=O)OCC(=O)NC(C)CCc2ccccc2)cc1OC` (stereo not given), under setting [1], the AC50 was 0.58 µM [rising, single point].

As for `O=C1NN(c2ccccc2)C(=O)/C1=C/c1cccs1`, the cell number change is -47.8%. Moreover, the AC50 under setting [1] was 18.4 µM [falling, single point]. For the same molecule, under setting [2], the AC50 is 0.058 µM [falling, full curve].

As for `CCN(CC)c1ccc(NC(=O)c2ccc3c(c2)c(C)c(C)n3C)cc1`, the cell number change is -11.9%.

Turning to `N#Cc1c(-c2cccc(Br)c2)cc(-c2ccco2)[nH]c1=O`, the cell number change amounted to 8.36%. Further, under setting [1], the AC50 was 2.31 µM [rising, partial curve, poor fit].

Consider `CC(C)c1ccc(NC(=O)[C@@H](NC(=O)N2CC(=O)Nc3ccccc32)C(C)C)cc1`, for which the cell number change was -15.3%.

Turning to `O=C(NCC(c1ccco1)N1CCN(c2ccc(F)cc2)CC1)c1ccc2c(c1)OCO2` (stereo not given), the cell number change was -6.01%. In addition, under setting [1], the AC50 was 0.00461 µM [rising, full curve, poor fit]. Also, the AC50 under setting [2] is 0.00411 µM [rising, full curve, poor fit].

As for `COc1ccc(CC2(C)OC(c3ccc(C)cc3)=NN2C(C)=O)cc1` (stereo not given), the cell number change turned out to be 30.9%. The AC50 under setting [1] is 10.3 µM [rising, single point].

Turning to `O=C(CCC1CCN(C(=O)c2ccco2)CC1)NCc1ccc(F)cc1`, the cell number change stood at 15.3%. For the same molecule, the AC50 under setting [1] was 4.11 µM [rising, single point]. Under setting [2], the AC50 was 29.1 µM [rising, single point].

As to `NC(=O)c1ccccc1OCC(=O)N1CCCC1c1ccc2c(c1)OCCCO2` (stereo not given), the cell number change was -12.5%.

In the case of `CC(Sc1nc2ncc(Cl)cc2[nH]1)C(=O)NC1(C#N)CCCCC1` (stereo not given), the cell number change is 3.31%.

For `Cc1cccc(NC(=O)CSc2nnc(-c3ccc(S(=O)(=O)N4CCOCC4)cc3)n2C)c1`, the cell number change was -3.42%.

Regarding `CC(C(=O)N1CCc2ccccc21)N1CCN(S(=O)(=O)c2cccc(C(F)(F)F)c2)CC1` (stereo not given), the cell number change is -4.96%. Besides, the AC50 under setting [2] was 0.00461 µM [falling, full curve, poor fit].

`Cc1c(Cl)cccc1Nc1nc(N)nc(CSc2ncccn2)n1`: the concentration at half-maximal activity (AC50) under setting [1] is 0.0326 µM [rising, full curve, poor fit] and the AC50 under setting [2] was 0.58 µM [rising, full curve, poor fit].

`CC(=O)Nc1ccc(-c2csc(NC(=O)Cc3cccc(F)c3)n2)cc1`: the cell number change worked out at 3.04%. Besides, the AC50 under setting [2] was 6.51 µM [rising, single point].

On to `CCOC(=O)Cc1csc(NC(=O)Cc2cccs2)n1`, for which the cell number change is -1.75%. Moreover, under setting [2], the AC50 is 0.82 µM [falling, full curve, poor fit].

Regarding `COc1ccc(C)cc1S(=O)(=O)N1CCN(c2cccc(C(F)(F)F)c2)CC1`, the cell number change turned out to be 199%. Moreover, the AC50 under setting [1] was 20.6 µM [rising, single point]. Under setting [2], the AC50 is 23.1 µM [rising, single point].

As for `CCOC(=O)C1=C(C)OC(N)=C(C#N)C1C1CCCCC1` (stereo not given), the cell number change is -47.4%. For the same molecule, under setting [1], the AC50 was 2.06 µM [falling, partial curve]. The AC50 under setting [2] was 23.1 µM [falling, single point].

Consider `O=C(NCC1CCCO1)/C(=C\c1ccco1)NC(=O)c1ccc(Cl)cc1` (stereo not given), for which the cell number change is 0.596%. Further, the AC50 under setting [2] is 0.731 µM [falling, single point].

In the case of `Cc1nc2ccccc2nc(C)c1=NOCc1ccc(C#N)cc1`, the cell number change came out at 19.9%. For the same molecule, the AC50 under setting [2] was 25.9 µM [rising, partial curve].

Turning to `Cc1cc(/C=C2/SC(=O)N(CC(=O)N3CCCC3)C2=O)c(C)n1C`, the cell number change was -7.69%.

`COCCCN1C(=O)C(O)=C(C(C)=O)C1c1cccc(F)c1` (stereo not given): the cell number change was -4.9%. The AC50 under setting [2] is 0.461 µM [falling, full curve, poor fit].

Regarding `COc1cc(/C=N/NC(=O)c2ccccn2)ccc1OC(=O)c1cccs1`, the cell number change is 2.27%. Under setting [2], the concentration at half-maximal activity (AC50) is 23.1 µM [falling, single point].

On to `O=C(CN1C(=O)c2ccccc2C1=O)OCC(=O)c1ccc(F)cc1`, for which the cell number change was -25%. Further, the AC50 under setting [1] was 6.51 µM [rising, partial curve].

Take `O=C(CSc1n[nH]c(-c2cccnc2)n1)Nc1ccc([N+](=O)[O-])cc1`: the cell number change was determined as 5.56%. Further, the AC50 under setting [2] is 29.1 µM [falling, single point].

Consider `O=C(c1cc(-c2ccccc2Cl)nc2ccccc12)N1CCC1`, for which the cell number change was found to be 33%. Further, the AC50 under setting [1] was 29.1 µM [rising, single point].

As for `O=C(CCC(=O)Nc1ccccc1Cl)N/N=C/c1c[nH]c2ccccc12`, the cell number change was -3.46%.

As for `COc1ccccc1Oc1ccccc1C(=O)O`, the cell number change is -40.6%. Further, under setting [1], the AC50 is 2.91 µM [falling, full curve]. Besides, the AC50 under setting [2] was 16.4 µM [falling, partial curve].

Turning to `COC(=O)[C@@]12CCCCN1[C@H](c1ccc(-c3cccc(Cl)c3)c(OC)c1)[C@H]1C(=O)N(C)C(=O)[C@H]12`, the cell number change worked out at 21.9%. Under setting [2], the AC50 is 0.517 µM [rising, full curve].

Take `COc1cccc(N2CCN(CC(=O)Nc3ccnn3C3CCCC3)CC2)c1`: the AC50 under setting [2] is 2.31 µM [falling, partial curve, poor fit].

As to `O=C(OCC(=O)N1CCCCCC1)c1ccc(S(=O)(=O)N2CCOCC2)cc1`, the cell number change was -2.6%. The AC50 under setting [2] was 0.00411 µM [rising, full curve, poor fit].

For the molecule `N#CNC(=Nc1cccc(Cl)c1)Oc1ccccc1`, the cell number change was -14.5%. The AC50 under setting [1] was 0.00411 µM [falling, full curve, poor fit]. Besides, the AC50 under setting [2] was 0.00461 µM [falling, full curve, poor fit].

As to `COc1ccc(CCn2c(=N)c(C(=O)NCCN3CCOCC3)cc3c(=O)n4cccc(C)c4nc32)cc1OC`, the cell number change turned out to be 18.6%. In addition, the concentration at half-maximal activity (AC50) under setting [2] is 6.51 µM [falling, single point].

For `c1ccc(C2Nc3cccc4cccc(c34)N2)cc1`, the cell number change was -11.1%. The half-maximal activity concentration (AC50) under setting [2] is 11.6 µM [falling, partial curve, poor fit].

On to `COc1ccc(CCNC(=O)Cn2cc(C(F)(F)F)cc(Cl)c2=O)cc1OC`, for which the cell number change is -18.2%. The AC50 under setting [2] was 7.31 µM [falling, full curve, poor fit].

Consider `Cc1ccc(CNC(=O)C(Cc2ccccc2)n2cccc2)cc1` (stereo not given), for which the cell number change turned out to be 4.35%. Further, the AC50 under setting [2] is 6.51 µM [falling, single point].

As for `CC(C)NC(=S)N1CCN(S(C)(=O)=O)CC1`, the cell number change is 37.7%. In addition, the AC50 under setting [1] is 29.1 µM [rising, single point].

For the molecule `COc1ccc(NC2=C(c3ccc(OC)cc3)C(=O)c3ccccc32)cc1`, the cell number change was -0.141%. In addition, the AC50 under setting [2] was 0.731 µM [rising, full curve, poor fit].

On to `O=C(Nc1ccnn1C1CCN(Cc2ccc(OC(F)F)cc2)CC1)C1CCCC1`, for which the cell number change was determined as 17%.

For `Cc1ccc(S(=O)(=O)N2CCN(C(=O)CN3C(=O)c4ccc([N+](=O)[O-])cc4C3=O)CC2)c(C)c1`, the cell number change was -12.9%. The AC50 under setting [2] is 2.91 µM [falling, full curve, poor fit].

On to `Fc1cccc(Cl)c1CSc1nnnn1-c1ccc2c(c1)OCO2`, for which the cell number change is -20%.

With `COCCn1cnc2c(c1=O)c1nc3ccccc3nc1n2/N=C/c1cccc(OC)c1`, the cell number change was -16.4%. Moreover, the AC50 under setting [2] was 23.1 µM [falling, partial curve].
